# Data taken from publication PMC7819943, “Rice protein-binding microarrays: a tool to detect cis-acting elements near promoter regions in rice”.
# The chains behind the UniProt entries cited, without tags or fusion partners.
# UniProt Q0JBA9, entry or part of it: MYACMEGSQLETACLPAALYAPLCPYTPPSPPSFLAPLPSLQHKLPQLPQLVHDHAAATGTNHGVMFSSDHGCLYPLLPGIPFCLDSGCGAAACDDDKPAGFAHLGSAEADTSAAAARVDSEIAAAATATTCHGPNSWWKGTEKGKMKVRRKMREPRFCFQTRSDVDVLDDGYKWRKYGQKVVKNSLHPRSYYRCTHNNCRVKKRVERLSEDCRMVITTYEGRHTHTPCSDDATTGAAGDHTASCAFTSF
# The other results are listed elsewhere or left out.
# Target: OsWRKY34 (Oryza sativa, UniProt Q0JBA9 1-250)
# Experiment: protein-binding microarray (RPBM); PBS, 2% BSA, 51.3 ng/ul salmon testes DNA, 50 uM zinc acetate, 200 nM TF, 25 C, 1 h; high values mean tight binding
# Details: protein: recombinant; tags: N-terminal polyhistidine and DsRed monomer fusion (pET32a); label: CyDye5-dUTP incorporated in the synthesized complementary strand; 3' TTTTT single-stranded linker to array surface; dsDNA, one strand shown
# Method in brief: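 For the binding signal, per-feature fluorescence intensity was read in arbitrary units on an Axon 4000B scanner. Before scanning, a 2% BSA-blocked custom Agilent array made double-stranded with Cy5-dUTP was washed after 1 h at 25 °C with 200 nM protein and 50 µM zinc acetate. The proteins were Ni–NTA-purified transcription factors with N-terminal polyhistidine and DsRed fusions, expressed in E. coli BL21-CodonPlus.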
row,Sequence,binding signal
1,TATCATTCCGCGTCTCGAACTTTCCACCTCTCCCAAATAACGGAGTCACCTAGTGCAG,8680 fluorescence intensity (a.u.)
2,CCCAGCCCAGCCCGTTATTGCCTCTTTTGACCTAGCCCACCGGAGTCACCTAGTGCAG,8920 fluorescence intensity (a.u.)
3,AGTCGGGTAGGGTGTGCGTGTGTGCGTTCATAGGGGTGTGCGGAGTCACCTAGTGCAG,8740 fluorescence intensity (a.u.)
4,TATTCTTCTCTGCTTGCTTGCTGCTATAGATAGATCCTTCCGGAGTCACCTAGTGCAG,9700 fluorescence intensity (a.u.)
5,GTAGTATTTCTCACCTGCTACACGGGCTTACCCAGACACTCGGAGTCACCTAGTGCAG,9580 fluorescence intensity (a.u.)
6,CCGCCCACCTCCTCCCCGACGGCCTCGTCTCCTACCTCGCCGGAGTCACCTAGTGCAG,8180 fluorescence intensity (a.u.)
7,AGACCACCCTAACTCAGCAACCATTCCGCCCACTAGCTTTCGGAGTCACCTAGTGCAG,9110 fluorescence intensity (a.u.)
8,TATAATTTTTGTTTTCTTCTCTCATGTTGCCAGTTCTTGACGGAGTCACCTAGTGCAG,9080 fluorescence intensity (a.u.)
9,CTTTTCATTTCTGTGTTGATTGCTCTTTTTCTCAGACGTTCGGAGTCACCTAGTGCAG,8720 fluorescence intensity (a.u.)
10,TGCAATTTCACTTGTTTTCGATCGGGTCATATTCTCGTGTCGGAGTCACCTAGTGCAG,8290 fluorescence intensity (a.u.)
11,CGGCTCCAATTATCTCCATCTCTCTGTCTCCGTATTGACCCGGAGTCACCTAGTGCAG,8480 fluorescence intensity (a.u.)
12,ATCCTCATCTCCGTCTCTTTTACCTTAATCTCGCATATATCGGAGTCACCTAGTGCAG,9910 fluorescence intensity (a.u.)
13,ATGCCATTCTCTACAGGAGCACTGCTGTTTTTGCTCCATTCGGAGTCACCTAGTGCAG,8850 fluorescence intensity (a.u.)
14,CGCTCATCCGCCACCACGCGCTTCTTCTCGTTCTCCTCCACGGAGTCACCTAGTGCAG,9320 fluorescence intensity (a.u.)
15,CATCACATCAAACTTTTATACTCACATAAACTTCCAACTTCGGAGTCACCTAGTGCAG,8460 fluorescence intensity (a.u.)
16,GTCATTTTCGCCGCCCTCTGAGAGGGCGATTTTTAAAAATCGGAGTCACCTAGTGCAG,10100 fluorescence intensity (a.u.)
17,TCTGGCAGCTGTAAATGATTGGTAGCAATGTGTATCTTTACGGAGTCACCTAGTGCAG,8820 fluorescence intensity (a.u.)
18,GGGTGGTGATTCTTCTTGGCGCAGCCGGCCAGGTGAAAACCGGAGTCACCTAGTGCAG,10200 fluorescence intensity (a.u.)
19,CCTGTATTATGCTTATAATCGATTTTTTTTTTACATTTTGCGGAGTCACCTAGTGCAG,9440 fluorescence intensity (a.u.)
20,GCCTCCACCAGCTCTCTCACCCCAGAATTCCCAAATCCGCCGGAGTCACCTAGTGCAG,12200 fluorescence intensity (a.u.)
21,CATTTCTTCTGTATACGATTGAATCGGGTTATGACAAGCTCGGAGTCACCTAGTGCAG,8410 fluorescence intensity (a.u.)

row,Sequence,binding signal
1,ATCACCGCCATCGCCGCCGGGTCGCACAACTTCACCTTCGCGGAGTCACCTAGTGCAG,8360 fluorescence intensity (a.u.)
2,AATCTCCCACCACACATTGCTTTCTCGAAATCTCTCCGATCGGAGTCACCTAGTGCAG,8990 fluorescence intensity (a.u.)
3,TATGCGTTGTCAATGACTGTATATTGATTGATTGGTTATTCGGAGTCACCTAGTGCAG,9420 fluorescence intensity (a.u.)
4,TGGCTTGGTCCGCTAGTTCCTAACATCATGACAGTATTTTCGGAGTCACCTAGTGCAG,8280 fluorescence intensity (a.u.)
5,CAACCTCTCGCCTCCAGTTGCATTTCCCATTTCGATTCGACGGAGTCACCTAGTGCAG,9350 fluorescence intensity (a.u.)
6,CGCACACTCAGGACATGTTATCTGCTACCAGCCTGCATTCCGGAGTCACCTAGTGCAG,8310 fluorescence intensity (a.u.)
7,TCCGCCAACCGTTCGATCTCGGCCCAACCTCGCGCCTCTCCGGAGTCACCTAGTGCAG,10900 fluorescence intensity (a.u.)
8,CACTTGCACTTCGTCAGCTAGCTTCATTGCTTCATTCATTCGGAGTCACCTAGTGCAG,9910 fluorescence intensity (a.u.)
9,AGAGAATGTTGTGTTATTTGTTGCACGCGTATTTCAAATTCGGAGTCACCTAGTGCAG,10400 fluorescence intensity (a.u.)
10,GCTTCTATATGTTTAGATTGGTGCCAAATTTTACCAACACCGGAGTCACCTAGTGCAG,9410 fluorescence intensity (a.u.)
11,CTATCAATTCGCTCTATTATGTCGCTCAATTCTCTCTCGCCGGAGTCACCTAGTGCAG,8650 fluorescence intensity (a.u.)
12,GTCGCCGCCGCCGCCGCCATGCTCTCGCTCGCCGCCTCCTCGGAGTCACCTAGTGCAG,11300 fluorescence intensity (a.u.)
13,CCCGTTGCGTCGTGCTCCCGCAGCCTCGCGAGTCGCGACGCGGAGTCACCTAGTGCAG,11400 fluorescence intensity (a.u.)
14,CTAGCTTCCTCTGACCTCTACCACTTTGCTGCTATATAAACGGAGTCACCTAGTGCAG,10100 fluorescence intensity (a.u.)
15,CTTGTCCCGAATTTACTCTATTTCTTTCATCCCACCATTTCGGAGTCACCTAGTGCAG,10300 fluorescence intensity (a.u.)
16,GACTAGAGGTGTTTTTTTTTTTTTGAAACCTTCAACTTTCCGGAGTCACCTAGTGCAG,10300 fluorescence intensity (a.u.)
17,ACCAGACTGGGTCAACGGTTGAACCGGAAAAAACCGGAACCGGAGTCACCTAGTGCAG,9560 fluorescence intensity (a.u.)
18,TTTACTGCATCCTCAGCTAATTAGTGCTATTTACACATATCGGAGTCACCTAGTGCAG,9220 fluorescence intensity (a.u.)
19,TACGCGGGGATAATCGATCACTACCAACTCTCATCTCAACCGGAGTCACCTAGTGCAG,8980 fluorescence intensity (a.u.)
20,TGTCTAGCTGCTCCGACCAGTCAACCGTTGAACGTTGACTCGGAGTCACCTAGTGCAG,14700 fluorescence intensity (a.u.)
21,TGTATAGTTTAGGGGTGAAGATTTCTGGTTTTGTGGTTAACGGAGTCACCTAGTGCAG,11500 fluorescence intensity (a.u.)

row,Sequence,binding signal
1,GGTGAGTAGTTGTTCTTGCTGCTGTGGTTTCTTGATACTTCGGAGTCACCTAGTGCAG,16300 fluorescence intensity (a.u.)
2,CTTGCTCTTGACTCCGCTCTACCCGCCGCCGCCGCCCAAACGGAGTCACCTAGTGCAG,10100 fluorescence intensity (a.u.)
3,AATCTGCCTTTCATCTTTCTGTTCTTGGAGATTCATGGTTCGGAGTCACCTAGTGCAG,8070 fluorescence intensity (a.u.)
4,CACCTCAACTTAGAACATACTTCACCTTGCTCCTCTCTCTCGGAGTCACCTAGTGCAG,8130 fluorescence intensity (a.u.)
5,GAATACTTAGAGTGGTGGAAAGGTAATGTTGTTTTTTCGCCGGAGTCACCTAGTGCAG,9870 fluorescence intensity (a.u.)
6,CCTGTTGATTGGTTAGCCCAGCCCATGATGTAGCCCATGACGGAGTCACCTAGTGCAG,8570 fluorescence intensity (a.u.)
7,CCTTTTGGTACCTAGATGCTTTTTCGTCTATTTTATTACTCGGAGTCACCTAGTGCAG,8430 fluorescence intensity (a.u.)
8,TAGATCAGATATTCAGATACTGTAGTTTCAAACTTTCAATCGGAGTCACCTAGTGCAG,8030 fluorescence intensity (a.u.)
9,ACCACTCCTGCATGACATTAGGTAGCAGCATCTTCTTGTTCGGAGTCACCTAGTGCAG,8130 fluorescence intensity (a.u.)
10,TCCTCCATTAATATGGTGCATATCCAATTTGATCATATCTCGGAGTCACCTAGTGCAG,8110 fluorescence intensity (a.u.)
11,TCTTCTCCGTTTCCACCCCATTTCGCTTCCCGATCACATCCGGAGTCACCTAGTGCAG,10200 fluorescence intensity (a.u.)
12,CTCGACTCGAGTAGTCCAGTCCACATGTGTTTCATCTTTGCGGAGTCACCTAGTGCAG,10100 fluorescence intensity (a.u.)
13,GTGCTTTGTACTGATCTGATTGCCTTCGCCTCATCATAATCGGAGTCACCTAGTGCAG,8800 fluorescence intensity (a.u.)
14,TTCCGGCATGAGTTTTTTTATTGGGCTGGTGATGGGGAGACGGAGTCACCTAGTGCAG,8700 fluorescence intensity (a.u.)
15,GAAAGATTTTTTTTTCTTATCTCTCACTCGATTTTCTCACCGGAGTCACCTAGTGCAG,8210 fluorescence intensity (a.u.)
16,TGCTCCAAGTGTTGGTCTTTCTTCCATTTCCCAAATCCCACGGAGTCACCTAGTGCAG,11600 fluorescence intensity (a.u.)
17,TGCAAAAAATCTTTTGTCTTAGGTCAGCTTCTCACAATCCCGGAGTCACCTAGTGCAG,8240 fluorescence intensity (a.u.)
18,GATCACAGCAGCCGCCGCCATCGCCATCTCTCGGACGGAACGGAGTCACCTAGTGCAG,11400 fluorescence intensity (a.u.)
19,TAATGGTGGTTTTAAATTTGTTTAAAGTTTGATCTTCAACCGGAGTCACCTAGTGCAG,8060 fluorescence intensity (a.u.)
20,CTGAAGTTCTAAACATTATGCCAGACACATAAAGTCTTACCGGAGTCACCTAGTGCAG,8330 fluorescence intensity (a.u.)
21,TCTATACCGAATACACATCCCTATACGTATAAGTCTATAGCGGAGTCACCTAGTGCAG,8840 fluorescence intensity (a.u.)

row,Sequence,binding signal
1,AGCTCTCAATACGTGACCATGAATCAGATTCAAACCTGAACGGAGTCACCTAGTGCAG,8200 fluorescence intensity (a.u.)
2,TTGGTGGGCTTTTTTGAGGGACCTTAACTCTCTCCTTGCTCGGAGTCACCTAGTGCAG,9720 fluorescence intensity (a.u.)
3,TTTTTTTCAATTCGTTTTTTTTTCATTTTTCATCGTCTTTCGGAGTCACCTAGTGCAG,8400 fluorescence intensity (a.u.)
4,TGTGTTGTGTTGTGACTTGTGTGAGTTGTTACCGGCAAGTCGGAGTCACCTAGTGCAG,8420 fluorescence intensity (a.u.)
5,ACGATCAGGCTTCAAACTCAGTGATATCCTTTCAGTCCGACGGAGTCACCTAGTGCAG,8780 fluorescence intensity (a.u.)
6,TAGCTTTGGCACCTTGCGCGCGCGTACACAGCCGCTTAAGCGGAGTCACCTAGTGCAG,8550 fluorescence intensity (a.u.)
7,TCCGTTCCCGCCACACAAACGACGCATGCTTTTTTTCTCCCGGAGTCACCTAGTGCAG,9890 fluorescence intensity (a.u.)
8,AGAAAGCCCATTTTGCCCTTTGTGCTTCAGAACATCGAGCCGGAGTCACCTAGTGCAG,8020 fluorescence intensity (a.u.)
9,TCACTTTATGCCATTTTTAGTCAAATCAAATTTTGGTAAACGGAGTCACCTAGTGCAG,8220 fluorescence intensity (a.u.)
10,TACCTTTTGTGGTGGGTTGTGTCTTCATATTTGAATTCGTCGGAGTCACCTAGTGCAG,11700 fluorescence intensity (a.u.)
11,TATGCGACATATCTGCTTATGCTATATACTATTTCTCCAACGGAGTCACCTAGTGCAG,10100 fluorescence intensity (a.u.)
12,TCACCCACATCCCTGTCTCTCTACCCTACCATGGACAGCTCGGAGTCACCTAGTGCAG,9760 fluorescence intensity (a.u.)
13,GTTCAGGAGCTATCTGTTTTATTTCAGGGATGGTTATTTGCGGAGTCACCTAGTGCAG,8030 fluorescence intensity (a.u.)
14,AGATACTCAACGCCATCACGAGGGCCAAGGGGAGGAGATGCGGAGTCACCTAGTGCAG,8170 fluorescence intensity (a.u.)
15,CTATGGTCCAAATTATCTTTCTCCTTTTTTCCTCTAATTACGGAGTCACCTAGTGCAG,8160 fluorescence intensity (a.u.)
16,GGGGAGTTGGGGACGGTGATCTCCACGGGGCGGATGGACTCGGAGTCACCTAGTGCAG,13100 fluorescence intensity (a.u.)
17,TTATGGCAGTCCAAAAACATGTTGTCACCATTGTCCATGTCGGAGTCACCTAGTGCAG,8480 fluorescence intensity (a.u.)
18,GAGTTATTAGCTTTTCTTGGTCTTGGTATACCTATGAAATCGGAGTCACCTAGTGCAG,9670 fluorescence intensity (a.u.)
19,TGTTTTTTCTCTGCATGAGTGTATTTCTCTTATTTGTTTACGGAGTCACCTAGTGCAG,8580 fluorescence intensity (a.u.)
20,GTAATCACGTAATCACGCCCAGCATCCAGAACGTTCCTCCCGGAGTCACCTAGTGCAG,8200 fluorescence intensity (a.u.)
21,GGATTGCCGGTTTTTGGTGTCCTTTTCGCATCAGCTTTAGCGGAGTCACCTAGTGCAG,9120 fluorescence intensity (a.u.)

# Retrieved one by one from the entries so far, five records:
row,Sequence,binding signal
8,AGAAAGCCCATTTTGCCCTTTGTGCTTCAGAACATCGAGCCGGAGTCACCTAGTGCAG,8020 fluorescence intensity (a.u.)
12,CTCGACTCGAGTAGTCCAGTCCACATGTGTTTCATCTTTGCGGAGTCACCTAGTGCAG,10100 fluorescence intensity (a.u.)
18,GGGTGGTGATTCTTCTTGGCGCAGCCGGCCAGGTGAAAACCGGAGTCACCTAGTGCAG,10200 fluorescence intensity (a.u.)
1,GGTGAGTAGTTGTTCTTGCTGCTGTGGTTTCTTGATACTTCGGAGTCACCTAGTGCAG,16300 fluorescence intensity (a.u.)
19,TAATGGTGGTTTTAAATTTGTTTAAAGTTTGATCTTCAACCGGAGTCACCTAGTGCAG,8060 fluorescence intensity (a.u.)
